PubChem BioAssay AID1224826, NIAID, 2016

- Aim: 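Genes that change LPS-induced Tnf promoter activity in mouse macrophages when knocked down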 (primary screen)
- System: RAW264.7 G9 macrophages from mouse bearing reporters for p65 (GFP) and the Tnf promoter (mCherry)
- Reagent: siRNA pool against mouse genes, 100 nM
- Duration: 16 h of LPS stimulation, after 2 days of siRNA transfection
- Challenge: bacterial lipopolysaccharide (Salmonella minnesota R595), 10 ng/ml
- Detection: 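Nuclear mCherry signal of the Tnf promoter reporter measured by imaging after background removal, scaled to each plate median and turned into robust z-scores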
- Direction: Tnf reporter robust z-score: higher = stronger Tnf promoter reporter signal after LPS
- Call rule: 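Called active when robust z-score is at most -1.3, matching the median of the Tlr4 knock-down control, or over 3; control wells and wells with under 50 cells never active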
- Calls: active = Tnf reporter clearly lowered or raised; inactive = no clear change in Tnf reporter
Shown is one part, drawn at random, of about 17,000 reagents. About 1,110 of them (6.6%) were called active. 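Active means lowered or raised reporter signal; replicate intensities are raw and not normalised per plate.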 Reagents against one gene are numbered here. Further read-outs or replicates are left out here. Reagent sequences are not shown.

{"target": "Krt85", "pool no.": 1, "Tnf reporter robust z-score": 0.28, "fewer than 50 cells in well": "enough cells in well", "Outcome": "inactive"}
{"target": "Fabp2", "pool no.": 1, "Tnf reporter robust z-score": -0.01, "fewer than 50 cells in well": "enough cells in well", "Outcome": "inactive"}
{"target": "Spata18", "pool no.": 1, "Tnf reporter robust z-score": 2.09, "fewer than 50 cells in well": "enough cells in well", "Outcome": "inactive"}
{"target": "Cables2", "pool no.": 1, "fewer than 50 cells in well": "fewer than 50 cells per well; well left out of calls", "Outcome": "inactive"}
{"target": "Ifng", "pool no.": 1, "Tnf reporter robust z-score": -0.5, "fewer than 50 cells in well": "enough cells in well", "Outcome": "inactive"}
{"target": "Nelfa", "pool no.": 1, "Tnf reporter robust z-score": 0.22, "fewer than 50 cells in well": "enough cells in well", "Outcome": "inactive"}
{"target": "Or51f1d", "pool no.": 1, "fewer than 50 cells in well": "fewer than 50 cells per well; well left out of calls", "Outcome": "inactive"}
{"target": "Capn3", "pool no.": 1, "Tnf reporter robust z-score": -0.41, "fewer than 50 cells in well": "enough cells in well", "Outcome": "inactive"}

2 entries from above, reduced to “Tnf reporter robust z-score”:
Krt85	0.28
Fabp2	-0.01

The results go on:
{"target": "Fech", "pool no.": 1, "Tnf reporter robust z-score": -1.21, "fewer than 50 cells in well": "enough cells in well", "Outcome": "inactive"}
{"target": "Glrp1", "pool no.": 1, "Tnf reporter robust z-score": 2.71, "fewer than 50 cells in well": "enough cells in well", "Outcome": "inactive"}
{"target": "Ubc", "pool no.": 1, "Tnf reporter robust z-score": -0.16, "fewer than 50 cells in well": "enough cells in well", "Outcome": "inactive"}
{"target": "Rims4", "pool no.": 1, "Tnf reporter robust z-score": -0.48, "fewer than 50 cells in well": "enough cells in well", "Outcome": "inactive"}
{"target": "Mrrf", "pool no.": 1, "Tnf reporter robust z-score": -0.11, "fewer than 50 cells in well": "enough cells in well", "Outcome": "inactive"}
{"target": "Mapk10", "pool no.": 1, "Tnf reporter robust z-score": 0.13, "fewer than 50 cells in well": "enough cells in well", "Outcome": "inactive"}
{"target": "Mapk10", "pool no.": 2, "Tnf reporter robust z-score": 0.36, "fewer than 50 cells in well": "enough cells in well", "Outcome": "inactive"}
{"target": "Pik3ip1", "pool no.": 1, "Tnf reporter robust z-score": -0.4, "fewer than 50 cells in well": "enough cells in well", "Outcome": "inactive"}
{"target": "Or8k24", "pool no.": 1, "Tnf reporter robust z-score": 0.37, "fewer than 50 cells in well": "enough cells in well", "Outcome": "inactive"}
{"target": "Cst5", "pool no.": 1, "Tnf reporter robust z-score": 0.84, "fewer than 50 cells in well": "enough cells in well", "Outcome": "inactive"}
{"target": "Or2ag1b", "pool no.": 1, "fewer than 50 cells in well": "fewer than 50 cells per well; well left out of calls", "Outcome": "inactive"}
{"target": "Teddm3", "pool no.": 1, "fewer than 50 cells in well": "fewer than 50 cells per well; well left out of calls", "Outcome": "inactive"}
{"target": "Arhgap22", "pool no.": 1, "Tnf reporter robust z-score": -0.72, "fewer than 50 cells in well": "enough cells in well", "Outcome": "inactive"}
